Reference: publication PMC10514999, “The PyPIF5-PymiR156a-PySPL9-PyMYB114/MYB10 module regulates light-induced anthocyanin biosynthesis in red pear”
The exact form of at least one protein or probe is not confirmed. Tags and fusion partners may be left off the protein sequences shown.

Biological target: T1, PyPIF5 (UniProt A0A5N5GDZ9)
T1 sequence (looked up, limits assumed): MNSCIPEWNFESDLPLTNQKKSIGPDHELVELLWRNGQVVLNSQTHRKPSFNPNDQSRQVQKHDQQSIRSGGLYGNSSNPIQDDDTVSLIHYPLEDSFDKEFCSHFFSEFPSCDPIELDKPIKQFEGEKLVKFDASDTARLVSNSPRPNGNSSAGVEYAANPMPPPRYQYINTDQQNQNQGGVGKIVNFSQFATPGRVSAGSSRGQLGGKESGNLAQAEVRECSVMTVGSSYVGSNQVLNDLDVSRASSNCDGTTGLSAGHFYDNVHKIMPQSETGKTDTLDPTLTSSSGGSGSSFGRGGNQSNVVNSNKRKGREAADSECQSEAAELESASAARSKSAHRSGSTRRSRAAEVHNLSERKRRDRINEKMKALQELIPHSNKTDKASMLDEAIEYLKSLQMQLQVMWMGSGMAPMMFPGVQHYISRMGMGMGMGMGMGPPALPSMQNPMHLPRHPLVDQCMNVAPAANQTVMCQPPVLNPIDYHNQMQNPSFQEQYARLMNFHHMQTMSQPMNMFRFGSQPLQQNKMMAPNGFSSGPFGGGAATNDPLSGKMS
Assay: EMSA
Conditions: 20 nM probe, 500 ng protein; EMSA: 500 ng PyPIF5-His, 20 nM biotin probe, 20 uL with 4 uL 5x EMSA/Gel-Shift buffer (Beyotime GS009), 20 min, room temperature (~25 C); salt and pH not stated; recombinant protein; protein details: His (pColdTF vector); label: biotin

Q: Does “TTGTAAAGAACACGTACGTTACACGTACGCTGAAACA / TGTTTCAGCGTAGTGTAACGTACGTGTTCTTTACAA [PymiR156a promoter G-box probe (Bio-probe)]” bind?
A: Result: binds
